Some of the results follow.
How the values were obtained:
Assay in all cases: log2 fold change, soluble protein after heating vs DMSO (PISA); higher = thermal stabilisation; K562 cells, 10 uM, 30 min; active = over 0.2 and 3.5 SD of the protein, either way, in both replicates (recomputed)
[1] = compound: CC1=C(C=C(C=C1)NC(=O)C2=CC(=CC=C2)C(C)(C)C#N)NC3=CC4=C(C=C3)N=CN(C4=O)C
Procedure, shortened: (§1)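 Soluble protein was defined as the supernatant after 21,000xg for 90 min. It came from K562 cells at 2×10^6 cells/mL given 10 μM compound for 30 min, heated in aliquots for 3 min across 48°C-58°C, pooled, and extracted in PBS with 0.5% NP-40 at 4°C, and was quantified by TMTpro 16plex LC-MS/MS with equalised channel sums. Thermal stability against control samples, from duplicates, is reported as log2 fold change.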

Sequences of proteins named here, by UniProt entry; tags and fusion partners are left off. A change or cut given only in a name is not applied to a line headed by its entry.
UniProt Q8NB37: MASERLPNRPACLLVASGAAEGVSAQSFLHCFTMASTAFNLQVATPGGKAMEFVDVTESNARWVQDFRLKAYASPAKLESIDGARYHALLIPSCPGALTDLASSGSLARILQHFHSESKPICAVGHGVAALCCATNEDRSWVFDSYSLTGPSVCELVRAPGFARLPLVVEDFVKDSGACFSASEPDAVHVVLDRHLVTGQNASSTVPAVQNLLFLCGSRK
UniProt P54803: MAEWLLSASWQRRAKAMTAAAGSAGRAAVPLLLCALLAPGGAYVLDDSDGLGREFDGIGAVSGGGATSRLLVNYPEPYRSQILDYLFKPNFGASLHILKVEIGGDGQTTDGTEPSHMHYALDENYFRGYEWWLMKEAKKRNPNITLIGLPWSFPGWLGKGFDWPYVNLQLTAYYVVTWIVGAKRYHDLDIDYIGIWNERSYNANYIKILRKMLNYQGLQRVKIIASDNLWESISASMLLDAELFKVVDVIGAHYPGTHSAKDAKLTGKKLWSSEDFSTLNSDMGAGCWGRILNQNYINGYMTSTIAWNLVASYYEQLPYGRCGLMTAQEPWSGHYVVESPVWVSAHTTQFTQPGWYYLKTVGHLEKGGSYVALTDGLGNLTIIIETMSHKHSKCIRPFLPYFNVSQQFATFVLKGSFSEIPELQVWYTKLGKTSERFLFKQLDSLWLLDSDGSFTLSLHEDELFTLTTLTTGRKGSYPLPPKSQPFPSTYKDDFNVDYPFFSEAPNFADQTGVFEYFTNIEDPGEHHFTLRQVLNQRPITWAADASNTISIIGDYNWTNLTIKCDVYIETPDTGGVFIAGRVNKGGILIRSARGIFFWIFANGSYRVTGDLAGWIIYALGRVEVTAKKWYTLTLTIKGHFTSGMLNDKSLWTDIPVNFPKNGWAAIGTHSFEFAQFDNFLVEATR
UniProt Q9NZC3: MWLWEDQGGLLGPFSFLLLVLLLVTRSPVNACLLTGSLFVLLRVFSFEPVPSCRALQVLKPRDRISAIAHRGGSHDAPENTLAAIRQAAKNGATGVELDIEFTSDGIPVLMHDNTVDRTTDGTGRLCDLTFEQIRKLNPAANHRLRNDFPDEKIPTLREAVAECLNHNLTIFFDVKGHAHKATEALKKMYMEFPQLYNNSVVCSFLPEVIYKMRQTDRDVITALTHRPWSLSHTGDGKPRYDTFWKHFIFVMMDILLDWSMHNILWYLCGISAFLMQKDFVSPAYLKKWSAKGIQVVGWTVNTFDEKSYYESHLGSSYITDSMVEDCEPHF
UniProt Q6NT46: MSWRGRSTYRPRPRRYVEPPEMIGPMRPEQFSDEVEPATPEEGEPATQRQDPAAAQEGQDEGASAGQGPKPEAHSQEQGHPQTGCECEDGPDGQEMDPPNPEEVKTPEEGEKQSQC
UniProt Q96I24: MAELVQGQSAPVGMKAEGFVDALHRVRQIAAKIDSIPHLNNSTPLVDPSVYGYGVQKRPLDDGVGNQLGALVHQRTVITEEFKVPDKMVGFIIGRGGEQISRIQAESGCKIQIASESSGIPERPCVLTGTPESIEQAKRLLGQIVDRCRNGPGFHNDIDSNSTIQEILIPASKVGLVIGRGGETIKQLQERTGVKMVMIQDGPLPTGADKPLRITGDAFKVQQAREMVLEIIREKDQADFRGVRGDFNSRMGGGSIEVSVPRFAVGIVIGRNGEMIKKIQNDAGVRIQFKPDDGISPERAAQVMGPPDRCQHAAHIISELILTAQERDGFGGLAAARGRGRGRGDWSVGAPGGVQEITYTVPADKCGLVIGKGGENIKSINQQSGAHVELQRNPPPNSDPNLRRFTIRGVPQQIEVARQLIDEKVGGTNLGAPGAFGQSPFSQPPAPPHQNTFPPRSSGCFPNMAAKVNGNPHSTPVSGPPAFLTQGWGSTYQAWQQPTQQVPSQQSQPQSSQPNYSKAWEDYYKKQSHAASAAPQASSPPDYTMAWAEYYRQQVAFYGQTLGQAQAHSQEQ
UniProt Q8WXD5: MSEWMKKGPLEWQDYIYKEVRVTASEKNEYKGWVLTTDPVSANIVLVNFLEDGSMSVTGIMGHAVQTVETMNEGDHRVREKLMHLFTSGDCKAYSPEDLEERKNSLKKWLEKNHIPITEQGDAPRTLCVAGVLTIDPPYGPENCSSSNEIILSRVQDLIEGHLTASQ
UniProt Q92616, whole entry, looked up: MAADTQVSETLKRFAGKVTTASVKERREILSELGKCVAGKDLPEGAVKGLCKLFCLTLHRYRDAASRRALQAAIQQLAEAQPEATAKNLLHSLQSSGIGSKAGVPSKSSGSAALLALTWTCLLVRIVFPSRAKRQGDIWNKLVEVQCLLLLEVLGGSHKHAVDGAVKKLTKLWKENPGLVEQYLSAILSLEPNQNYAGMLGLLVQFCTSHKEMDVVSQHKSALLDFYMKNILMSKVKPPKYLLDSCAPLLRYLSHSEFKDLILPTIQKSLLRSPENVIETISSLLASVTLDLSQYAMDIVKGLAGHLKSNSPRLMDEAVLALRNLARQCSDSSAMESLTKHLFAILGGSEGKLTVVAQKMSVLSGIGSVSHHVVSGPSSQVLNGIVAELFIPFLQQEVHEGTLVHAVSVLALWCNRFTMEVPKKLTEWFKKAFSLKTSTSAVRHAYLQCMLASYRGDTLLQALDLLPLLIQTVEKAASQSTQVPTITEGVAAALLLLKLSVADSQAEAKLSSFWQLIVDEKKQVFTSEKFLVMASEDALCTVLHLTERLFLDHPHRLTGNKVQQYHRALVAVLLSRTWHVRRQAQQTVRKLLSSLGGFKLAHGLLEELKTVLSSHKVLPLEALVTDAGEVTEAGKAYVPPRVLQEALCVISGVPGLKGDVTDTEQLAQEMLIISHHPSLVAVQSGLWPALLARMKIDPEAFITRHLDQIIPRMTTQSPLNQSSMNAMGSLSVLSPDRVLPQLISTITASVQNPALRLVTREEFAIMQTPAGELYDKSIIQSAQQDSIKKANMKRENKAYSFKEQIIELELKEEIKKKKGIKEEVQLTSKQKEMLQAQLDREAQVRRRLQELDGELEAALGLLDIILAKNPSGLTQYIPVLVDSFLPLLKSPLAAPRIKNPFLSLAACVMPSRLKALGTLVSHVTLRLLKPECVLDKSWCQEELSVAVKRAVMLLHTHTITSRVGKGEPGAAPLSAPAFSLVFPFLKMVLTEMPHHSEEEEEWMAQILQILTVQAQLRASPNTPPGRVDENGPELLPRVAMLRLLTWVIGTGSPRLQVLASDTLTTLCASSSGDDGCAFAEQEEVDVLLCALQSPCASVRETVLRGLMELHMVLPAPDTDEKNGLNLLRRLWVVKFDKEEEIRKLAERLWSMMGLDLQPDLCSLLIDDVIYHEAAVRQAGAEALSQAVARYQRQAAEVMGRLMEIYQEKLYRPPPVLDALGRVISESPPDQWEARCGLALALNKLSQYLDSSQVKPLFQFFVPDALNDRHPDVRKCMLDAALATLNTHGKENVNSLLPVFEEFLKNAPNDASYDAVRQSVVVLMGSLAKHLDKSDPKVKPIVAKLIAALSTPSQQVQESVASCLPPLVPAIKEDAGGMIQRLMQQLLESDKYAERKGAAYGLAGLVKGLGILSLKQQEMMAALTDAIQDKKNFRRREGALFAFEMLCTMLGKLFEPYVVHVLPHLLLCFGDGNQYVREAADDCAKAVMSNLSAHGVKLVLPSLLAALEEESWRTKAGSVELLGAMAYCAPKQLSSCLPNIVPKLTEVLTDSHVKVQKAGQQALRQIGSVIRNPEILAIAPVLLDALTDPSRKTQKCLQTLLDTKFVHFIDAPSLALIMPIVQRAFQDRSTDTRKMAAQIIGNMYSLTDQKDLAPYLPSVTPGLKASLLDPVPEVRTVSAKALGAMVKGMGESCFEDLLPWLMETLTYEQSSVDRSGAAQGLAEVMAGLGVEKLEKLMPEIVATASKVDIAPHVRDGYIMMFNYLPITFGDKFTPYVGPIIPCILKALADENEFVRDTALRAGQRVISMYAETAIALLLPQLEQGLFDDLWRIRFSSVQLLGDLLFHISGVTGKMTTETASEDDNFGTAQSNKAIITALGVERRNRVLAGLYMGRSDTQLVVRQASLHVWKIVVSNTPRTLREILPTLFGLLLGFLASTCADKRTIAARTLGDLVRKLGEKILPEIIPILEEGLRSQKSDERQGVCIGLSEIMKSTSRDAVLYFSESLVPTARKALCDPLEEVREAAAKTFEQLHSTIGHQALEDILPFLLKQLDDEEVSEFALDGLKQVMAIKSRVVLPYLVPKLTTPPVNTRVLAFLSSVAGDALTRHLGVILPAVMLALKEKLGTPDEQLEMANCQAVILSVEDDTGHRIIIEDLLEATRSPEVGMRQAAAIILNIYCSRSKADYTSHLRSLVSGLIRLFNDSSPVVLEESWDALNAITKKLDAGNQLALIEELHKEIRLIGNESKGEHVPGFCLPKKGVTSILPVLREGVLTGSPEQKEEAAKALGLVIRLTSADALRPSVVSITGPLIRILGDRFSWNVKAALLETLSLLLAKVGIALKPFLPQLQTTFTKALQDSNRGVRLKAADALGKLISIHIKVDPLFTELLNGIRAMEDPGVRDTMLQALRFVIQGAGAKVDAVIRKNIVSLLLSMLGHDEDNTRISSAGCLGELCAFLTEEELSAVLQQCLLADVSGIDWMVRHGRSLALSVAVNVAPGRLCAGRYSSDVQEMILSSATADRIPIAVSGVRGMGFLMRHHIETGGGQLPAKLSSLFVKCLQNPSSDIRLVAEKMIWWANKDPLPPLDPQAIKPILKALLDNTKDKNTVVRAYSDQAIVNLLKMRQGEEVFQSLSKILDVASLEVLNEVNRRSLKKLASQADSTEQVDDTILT
UniProt P31150: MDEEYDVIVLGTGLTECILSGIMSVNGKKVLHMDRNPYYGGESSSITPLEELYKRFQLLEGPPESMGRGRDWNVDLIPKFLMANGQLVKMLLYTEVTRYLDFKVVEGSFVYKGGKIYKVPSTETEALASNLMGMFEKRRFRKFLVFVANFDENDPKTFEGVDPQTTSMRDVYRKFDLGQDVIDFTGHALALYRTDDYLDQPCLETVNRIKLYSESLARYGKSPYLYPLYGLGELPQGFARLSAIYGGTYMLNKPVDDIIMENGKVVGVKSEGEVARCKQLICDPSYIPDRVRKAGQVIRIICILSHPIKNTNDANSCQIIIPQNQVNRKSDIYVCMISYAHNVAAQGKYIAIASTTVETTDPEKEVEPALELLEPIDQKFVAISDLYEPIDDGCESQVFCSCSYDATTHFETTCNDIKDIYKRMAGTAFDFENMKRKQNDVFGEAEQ
UniProt Q7L5D6: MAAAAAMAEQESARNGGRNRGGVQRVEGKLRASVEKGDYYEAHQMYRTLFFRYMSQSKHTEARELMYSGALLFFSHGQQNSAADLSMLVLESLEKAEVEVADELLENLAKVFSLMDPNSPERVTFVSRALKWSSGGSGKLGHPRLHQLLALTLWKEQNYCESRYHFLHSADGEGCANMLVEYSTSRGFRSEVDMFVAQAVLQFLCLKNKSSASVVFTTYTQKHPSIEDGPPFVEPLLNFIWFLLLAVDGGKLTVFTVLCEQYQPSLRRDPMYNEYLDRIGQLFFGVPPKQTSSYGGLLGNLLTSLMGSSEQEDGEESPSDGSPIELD
UniProt Q9NY12: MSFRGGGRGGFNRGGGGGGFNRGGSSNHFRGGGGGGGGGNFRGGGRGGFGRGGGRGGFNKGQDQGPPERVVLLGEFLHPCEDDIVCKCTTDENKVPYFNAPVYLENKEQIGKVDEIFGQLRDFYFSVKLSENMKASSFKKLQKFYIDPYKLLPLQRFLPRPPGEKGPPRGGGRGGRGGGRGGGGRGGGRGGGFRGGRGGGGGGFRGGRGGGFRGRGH
UniProt P48506: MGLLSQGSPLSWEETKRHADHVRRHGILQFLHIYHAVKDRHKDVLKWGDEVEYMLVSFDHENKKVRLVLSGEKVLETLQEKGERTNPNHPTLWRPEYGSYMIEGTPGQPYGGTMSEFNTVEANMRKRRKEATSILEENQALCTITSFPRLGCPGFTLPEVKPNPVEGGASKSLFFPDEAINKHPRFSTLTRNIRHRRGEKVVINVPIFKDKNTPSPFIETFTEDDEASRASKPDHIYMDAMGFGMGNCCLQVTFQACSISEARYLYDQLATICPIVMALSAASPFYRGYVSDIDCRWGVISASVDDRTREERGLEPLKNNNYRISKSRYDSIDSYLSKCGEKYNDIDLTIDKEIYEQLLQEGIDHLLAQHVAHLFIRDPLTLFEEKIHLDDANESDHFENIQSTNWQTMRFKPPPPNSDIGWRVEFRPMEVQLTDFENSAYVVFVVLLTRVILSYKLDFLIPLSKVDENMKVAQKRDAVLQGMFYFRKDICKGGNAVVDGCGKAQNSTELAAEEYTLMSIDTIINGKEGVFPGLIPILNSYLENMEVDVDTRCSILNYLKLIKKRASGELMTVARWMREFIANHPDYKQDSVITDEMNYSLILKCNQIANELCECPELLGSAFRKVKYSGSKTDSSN
UniProt P55789: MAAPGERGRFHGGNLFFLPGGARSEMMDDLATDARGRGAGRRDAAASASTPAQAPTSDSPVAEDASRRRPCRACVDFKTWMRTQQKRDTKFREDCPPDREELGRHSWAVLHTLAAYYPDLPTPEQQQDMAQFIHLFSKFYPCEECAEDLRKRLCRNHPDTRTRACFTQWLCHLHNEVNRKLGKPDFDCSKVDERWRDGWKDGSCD

[2] = compound: CC1=C(C=C(C=C1)NC(=O)C2=CC(=CC=C2)N(C)C)NC(=O)C3=CC=C(C=C3)O
Procedure, shortened: as §1

[3] = compound: CC1=CC=C(C=C1)SC2=C3C=C(SC3=CN=C2)C(=O)N
Procedure, shortened: as §1

[4] = compound: CC1=NC(=CC=C1)C2=C(N=C(N2)C(C)(C)C)C3=CC4=NC=CN=C4C=C3
Procedure, shortened: as §1

Nexturastat A = compound: CCCCN(Cc1ccc(C(=O)NO)cc1)C(=O)Nc1ccccc1 [Nexturastat A]
Procedure, shortened: as §1

vemurafenib = compound: CCCS(=O)(=O)Nc1ccc(F)c(C(=O)c2c[nH]c3ncc(-c4ccc(Cl)cc4)cc23)c1F [vemurafenib]
Procedure, shortened: as §1

[5] = compound: CCCS(=O)(=O)Nc1ccc(F)c(C(=O)c2c[nH]c3ncc(Cl)cc23)c1F
Procedure, shortened: as §1

[6] = compound: CCCc1cc(C)[nH]c(=O)c1CNC(=O)c1cc(-c2ccnc(N3CCN(C)CC3)c2)cc2c1cnn2C(C)C
Procedure, shortened: as §1

givinostat = compound: CCN(CC)Cc1ccc2cc(COC(=O)Nc3ccc(C(=O)NO)cc3)ccc2c1 [givinostat]
Procedure, shortened: as §1

barasertib = compound: CCN(CCCOc1ccc2c(Nc3cc(CC(=O)Nc4cccc(F)c4)[nH]n3)ncnc2c1)CCOP(=O)(O)O [barasertib]
Procedure, shortened: as §1

Measured: log2 fold change

GATD1 (UniProt Q8NB37)
inactive: [1] 0.054 | [2] -0.041 | [3] -0.023 | [4] -0.108 | Nexturastat A 0.067 | vemurafenib -0.047 | [5] -0.06 | [6] 0.021 | givinostat 0.013 | barasertib 0.024

GDAP1 (UniProt Q8TB36)
inactive: [1] -0.007 | [2] -0.082 | [3] 0.001 | [4] -0.009 | Nexturastat A 0.024 | vemurafenib -0.014 | [5] -0.037 | [6] 0.017 | givinostat -0.05 | barasertib 0.014

FSCN1 (UniProt Q16658)
inactive: [1] 0.065 | [2] 0.011 | [3] 0.036 | [4] 0.074 | Nexturastat A -0.059 | vemurafenib 0.054 | [5] 0.065 | [6] 0.014 | givinostat -0.015 | barasertib 0.008

GALNS (UniProt P34059)
inactive: [1] -0.123 | [2] 0.044 | [3] 0.031 | [4] -0.014 | Nexturastat A 0.083 | vemurafenib -0.103 | [5] 0.092 | [6] 0.032 | givinostat -0.031 | barasertib 0.016

GALC (UniProt P54803)
inactive: [1] 0.002 | [2] -0.032 | [3] 0 | [4] -0.013 | Nexturastat A 0.012 | vemurafenib -0.03 | [5] -0.03 | [6] -0.049 | givinostat 0.036 | barasertib 0.002

GDE1 (UniProt Q9NZC3)
inactive: [1] 0.022 | [2] -0.004 | [3] 0.012 | [4] -0.059 | Nexturastat A 0.02 | vemurafenib -0.033 | [5] -0.009 | [6] 0.064 | givinostat -0.052 | barasertib -0.049

GCSH (UniProt P23434)
inactive: [1] -0.024 | [2] 0.047 | [3] 0.279 | [4] 0.006 | Nexturastat A -0.06 | vemurafenib 0.079 | [5] -0.021 | [6] -0.139 | givinostat 0 | barasertib -0.095

GGT2 isoform 3 (UniProt P36268)
inactive: [1] 0.059 | [2] 0.089 | [3] -0.083 | [4] 0.101 | Nexturastat A 0.083 | vemurafenib 0.026 | [5] -0.072 | [6] -0.022 | givinostat -0.097 | barasertib -0.032

GALT (UniProt P07902)
inactive: [1] -0.007 | [2] 0.097 | [3] -0.006 | [4] -0.023 | Nexturastat A -0.035 | vemurafenib 0.009 | [5] 0.036 | [6] -0.081 | givinostat 0.008 | barasertib 0.056

FRYL (UniProt O94915)
inactive: [1] 0.037 | [2] -0.042 | [3] -0.039 | [4] -0.002 | Nexturastat A 0.021 | vemurafenib -0.03 | [5] -0.002 | [6] 0.017 | givinostat -0.004 | barasertib 0.004

GAN (UniProt Q9H2C0)
inactive: [1] -0.002 | [2] -0.008 | [3] -0.021 | [4] 0.035 | Nexturastat A -0.04 | vemurafenib 0.013 | [5] 0.01 | [6] -0.001 | givinostat -0.031 | barasertib 0.013

GAGE2A (UniProt Q6NT46)
inactive: [1] -0.012 | [2] 0.025 | [3] 0.009 | [4] 0.019 | Nexturastat A -0.052 | vemurafenib 0.003 | [5] -0.049 | [6] -0.068 | givinostat 0.024 | barasertib -0.012

FXR1 (UniProt P51114)
inactive: [1] 0.013 | [2] 0.031 | [3] -0.055 | [4] -0.294 | Nexturastat A 0.426 | vemurafenib 0.028 | [5] -0.014 | [6] 0.353 | givinostat 0.123 | barasertib 0.006

FUBP3 (UniProt Q96I24)
inactive: [1] 0.021 | [2] -0.018 | [3] 0.01 | [4] 0.122 | Nexturastat A -0.114 | vemurafenib 0.035 | [5] 0.018 | [6] -0.059 | givinostat -0.023 | barasertib -0.012

FUBP1 (UniProt Q96AE4)
inactive: [1] 0.105 | [2] -0.148 | [3] -0.036 | [4] 0.057 | Nexturastat A 0.011 | vemurafenib 0.078 | [5] -0.072 | [6] 0.07 | givinostat 0.086 | barasertib 0.017

GEMIN6 (UniProt Q8WXD5)
inactive: [1] -0.049 | [2] -0.05 | [3] 0.014 | [4] 0.015 | Nexturastat A 0.134 | vemurafenib 0.073 | [5] -0.001 | [6] 0.008 | givinostat -0.088 | barasertib -0.053

GCN1 (UniProt Q92616)
inactive: [1] 0.075 | [2] 0.072 | [3] -0.019 | [4] -0.201 | Nexturastat A 0.501 | vemurafenib -0.038 | [5] -0.038 | [6] 0.2 | givinostat 0.231 | barasertib 0.011

FUT11 (UniProt Q495W5)
inactive: [1] 0.077 | [2] -0.101 | [3] -0.083 | [4] 0.005 | Nexturastat A -0.122 | vemurafenib -0.055 | [5] -0.281 | [6] 0.067 | givinostat 0.103 | barasertib -0.013

GDI1 (UniProt P31150)
inactive: [1] 0.007 | [2] 0.012 | [3] -0.003 | [4] 0.009 | Nexturastat A -0.051 | vemurafenib 0.015 | [5] -0.008 | [6] -0.027 | givinostat -0.032 | barasertib 0.012

GAMT (UniProt Q14353)
inactive: [1] -0.019 | [2] -0.016 | [3] -0.296 | [4] 0.143 | Nexturastat A -0.022 | vemurafenib 0.002 | [5] 0.139 | [6] 0.031 | givinostat 0.032 | barasertib 0.044

GANAB isoform 2 (UniProt Q14697)
inactive: [1] 0.027 | [2] -0.031 | [3] -0.034 | [4] -0.015 | Nexturastat A 0.03 | vemurafenib 0.007 | [5] -0.002 | [6] 0.056 | givinostat 0.01 | barasertib -0.023

GET4 (UniProt Q7L5D6)
inactive: [1] -0.028 | [2] -0.03 | [3] 0.003 | [4] -0.024 | Nexturastat A 0.127 | vemurafenib 0.052 | [5] 0.039 | [6] -0.009 | givinostat 0.061 | barasertib 0.044

GAR1 (UniProt Q9NY12)
inactive: [1] 0.012 | [2] -0.021 | [3] -0.035 | [4] -0.09 | Nexturastat A 0.17 | vemurafenib -0.05 | [5] -0.031 | [6] 0.099 | givinostat 0.023 | barasertib -0.079

GCLC (UniProt P48506)
inactive: [1] 0.023 | [2] -0.053 | [3] 0.014 | [4] 0.01 | Nexturastat A -0.053 | vemurafenib 0.032 | [5] -0.005 | [6] -0.015 | givinostat 0.03 | barasertib 0.028

GCHFR (UniProt P30047)
inactive: [1] -0.001 | [2] 0.03 | [3] 0.033 | [4] 0.004 | Nexturastat A 0.004 | vemurafenib -0.094 | [5] -0.047 | [6] -0.049 | givinostat 0.128 | barasertib -0.003

FUS (UniProt P35637)
inactive: [1] -0.019 | [2] 0.026 | [3] -0.115 | [4] 0.008 | Nexturastat A 0.091 | vemurafenib -0.08 | [5] -0.101 | [6] 0.163 | givinostat -0.088 | barasertib -0.091

GFER (UniProt P55789)
inactive: [1] 0.071 | [2] 0 | [3] 0.015 | [4] -0.07 | Nexturastat A 0.061 | vemurafenib 0.04 | [5] -0.017 | [6] -0.025 | givinostat -0.239 | barasertib 0.06

Quoted from above (two entries):
GCHFR (UniProt P30047)
inactive: [1] -0.001 | [2] 0.03 | [3] 0.033 | [4] 0.004 | Nexturastat A 0.004 | vemurafenib -0.094 | [5] -0.047 | [6] -0.049 | givinostat 0.128 | barasertib -0.003

FUS (UniProt P35637)
inactive: [1] -0.019 | [2] 0.026 | [3] -0.115 | [4] 0.008 | Nexturastat A 0.091 | vemurafenib -0.08 | [5] -0.101 | [6] 0.163 | givinostat -0.088 | barasertib -0.091

Next records:

FPGT (UniProt O14772)
inactive: [1] 0.035 | [2] 0.032 | [3] 0.033 | [4] 0.042 | Nexturastat A -0.041 | vemurafenib 0.053 | [5] 0.02 | [6] 0.058 | givinostat -0.001 | barasertib 0.009

From the supplement of paper PMC10849652
